These are yes or no findings as the source states them, for the method shown. Binding seen in cells or lysates may run through a third protein. These calls come from enrichment with a bait or labelling near it, and not all partners need be listed. Sequences can lack the tags named with a protein.

This assay addresses T1, Flag-OTUD5-WT (UniProt Q3U2S4).
T1 sequence: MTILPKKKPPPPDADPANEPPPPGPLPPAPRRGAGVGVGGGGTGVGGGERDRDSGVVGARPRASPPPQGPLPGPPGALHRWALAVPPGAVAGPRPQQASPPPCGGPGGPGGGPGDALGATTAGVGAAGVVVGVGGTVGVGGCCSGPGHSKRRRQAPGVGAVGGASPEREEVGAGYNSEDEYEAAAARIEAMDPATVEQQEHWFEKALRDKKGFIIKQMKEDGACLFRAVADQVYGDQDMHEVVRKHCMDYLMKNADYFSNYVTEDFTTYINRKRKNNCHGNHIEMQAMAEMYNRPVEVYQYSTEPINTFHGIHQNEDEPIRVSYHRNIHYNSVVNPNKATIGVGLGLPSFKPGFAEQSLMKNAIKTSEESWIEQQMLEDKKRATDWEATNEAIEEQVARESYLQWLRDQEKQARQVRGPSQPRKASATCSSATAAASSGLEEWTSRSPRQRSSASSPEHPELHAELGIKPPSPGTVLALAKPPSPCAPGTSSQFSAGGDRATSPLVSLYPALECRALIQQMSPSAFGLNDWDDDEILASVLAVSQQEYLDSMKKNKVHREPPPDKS
The assay is described as follows: affinity purification with mass spectrometry; MPC5 cells transfected with Flag-vector or Flag-OTUD5; anti-Flag and protein A + G agarose beads; LC-MS/MS.

B1: TGF-β-activated kinase 1 (TAK1), endogenous (enzyme, UniProt Q62073 1-579)
chain: MSTASAASSSSSSSASEMIEAPSQVLNFEEIDYKEIEVEEVVGRGAFGVVCKAKWRAKDVAIKQIESESERKAFIVELRQLSRVNHPNIVKLYGACLNPVCLVMEYAEGGSLYNVLHGAEPLPYYTAAHAMSWCLQCSQGVAYLHSMQPKALIHRDLKPPNLLLVAGGTVLKICDFGTACDIQTHMTNNKGSAAWMAPEVFEGSNYSEKCDVFSWGIILWEVITRRKPFDEIGGPAFRIMWAVHNGTRPPLIKNLPKPIESLMTRCWSKDPSQRPSMEEIVKIMTHLMRYFPGADEPLQYPCQYSDEGQSNSATSTGSFMDIASTNTSNKSDTNMEQVPATNDTIKRLESKLLKNQAKQQSESGRLSLGASRGSSVESLPPTSEGKRMSADMSEIEARIVATAGNGQPRRRSIQDLTVTGTEPGQVSSRSSSPSVRMITTSGPTSEKPARSHPWTPDDSTDTNGSDNSIPMAYLTLDHQLQPLAPCPNSKESMAVFEQHCKMAQEYMKVQTEIALLLQRKQELVAELDQDEKDQQNTSRLVQEHKKLLDENKSLSTYYQQCKKQLEVIRSQQQKRQGTS
Regarding B1, the binding result is “binds”.

Values taken from paper PMC11211476.
